Test results taken from patent EP4831293A1, “BIOSYNTHETIC GENE CLUSTER FOR POLYENE MACROLIDE NATURAL PRODUCT MANDIMYCIN, AND NATURAL PRODUCT AND USE THEREOF” (dated 2026).

Experiments:
[1] = Isothermal titration calorimetry (ITC); details: 25°C, 5.0 mM HEPES pH 7.4
[2] = Isothermal titration calorimetry (ITC), phospholipids as a group; details: 25°C, 5.0 mM HEPES pH 7.4
UV-vis binding curves = details: UV-Vis 310-400 nm, room temperature, 30 min
HK-2 cells = assay: Cytotoxicity, MTT assay
HepG2 cells = assay: Cytotoxicity, MTT assay; details: 48 h
PANC-1 cells = assay: Cytotoxicity, MTT assay
SK-Hep-1 cells = assay: Cytotoxicity, MTT assay
blood cells = assay: Hemolytic activity; details: 100 µM, 37°C, 3 h, sheep blood cells
[3] = In vivo pharmacokinetic study; details: rats, subcutaneous injection, 25 mg/kg
[4] = In vivo nephrotoxicity evaluation (biomarkers, histopathology); details: mice
[5] = Acute toxicity observed in the mouse infection experiments
[6] = Stability under acidic conditions (statement); details: prone to dehydration and loss of side-chain glycosyl groups

With CC1C=CCCC=CC=CC=CC=CC=CC(OC2OC(C)C(O)C(N)C2O)CC2OC(O)(CC(O)C(O)CCC(O)CC(=O)CC(O)CC(=O)OC(C)C(C)C1O)CC(O)C2C(=O)O (stereo not drawn) the Kd ([1]; cholesterol) was 28.6 µM, the Kd ([1]; ergosterol) was 25.9 µM and the “binding to phospholipid components (ITC)” value [2] was “no binding curves”. The “binding to phospholipid molecules (UV absorbance change)” value (UV-vis binding curves) was “do not bind” and the “binding to sterol molecules (UV absorbance change)” value (UV-vis binding curves; cholesterol and ergosterol) was “binds to sterol molecules”.
Compound COC1CC(OC2C(O)CC(OC3C(C)C=CCCC=CC=CC=CC=CC=CC(OC4OC(C)C(O)C(N)C4O)CC4OC(O)(CC(O)C(O)CCC(O)CC(=O)CC(O)CC(=O)OC(C)C3C)CC(O)C4C(=O)O)OC2C)OC(C)C1O (stereo not drawn) has an IC50 (HK-2 cells) of 88.7 µM, an IC50 (HepG2 cells) of 57.6 µM and an IC50 (PANC-1 cells) of 48.3 µM. The IC50 (SK-Hep-1 cells) was 76.7 µM, the hemolytic activity (blood cells) was “no hemolytic activity” and the “area under the curve (AUC0-∞)” value [3] was 541,692.11 h•ng/mL. For the same compound, the half-life [3] was 3.84 h, the “maximum concentration (Cmax)” value [3] was 55,168.20 ng/mL and the “nephrotoxicity-related indicators (KIM-1, TIMP-1, NGAL, OPN)” value ([4]; s.c. 1, 5, 10 or 20 mg/kg once daily) was “comparable to those of the placebo group”. The “histopathological scoring of kidney” value ([4]; s.c. once daily, H&E staining) was “virtually no renal injury”, the acute toxicity ([5]; 20 mg/kg, both mouse infection models) was “no acute toxicity was observed” and the acute toxicity ([5]; all in vivo animal experiments at different doses) was “No acute toxicity was observed”. The Kd ([1]; cardiolipin) was 63.6 µM, the Kd ([1]; ergosterol) was “does not bind” and the Kd ([1]; phosphatidylcholine) was 36.8 µM. For the same compound, the Kd ([1]; phosphatidylglycerol) was 28.2 µM, the Kd ([1]; phosphatidylinositol) was 21.9 µM and the Kd ([1]; sphingomyelin (table: Sphingolipid)) was 50 µM. For the same compound, the “stability under acidic conditions” value [6] was “unstable under acidic conditions”.

Structures were worked out from names or drawings and are uncertain.
